Laboratory results published in article PMC8880450.
Results are given in words; binding and its absence hold for the method and conditions named. In cells and extracts the contact can be indirect. Some results given as binding are weak or reduced against the parent protein; the word gives no strength.

Sequences of proteins named here, by UniProt entry; tags and fusion partners are left off. A change or cut given only in a name is not applied to a line headed by its entry.
UniProt P03466: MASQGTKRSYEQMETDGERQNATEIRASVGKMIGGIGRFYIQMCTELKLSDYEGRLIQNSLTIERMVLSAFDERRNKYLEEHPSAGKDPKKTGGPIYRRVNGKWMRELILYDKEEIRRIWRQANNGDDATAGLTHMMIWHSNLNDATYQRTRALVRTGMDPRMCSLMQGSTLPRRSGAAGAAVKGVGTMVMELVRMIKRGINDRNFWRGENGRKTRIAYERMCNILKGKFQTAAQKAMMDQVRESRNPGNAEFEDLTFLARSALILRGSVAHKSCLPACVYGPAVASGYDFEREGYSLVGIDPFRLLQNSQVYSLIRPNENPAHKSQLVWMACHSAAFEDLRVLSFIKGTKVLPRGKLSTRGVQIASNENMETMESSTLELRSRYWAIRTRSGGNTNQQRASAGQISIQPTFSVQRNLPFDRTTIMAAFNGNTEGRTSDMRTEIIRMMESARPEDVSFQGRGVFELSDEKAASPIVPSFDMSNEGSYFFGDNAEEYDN
UniProt P09651: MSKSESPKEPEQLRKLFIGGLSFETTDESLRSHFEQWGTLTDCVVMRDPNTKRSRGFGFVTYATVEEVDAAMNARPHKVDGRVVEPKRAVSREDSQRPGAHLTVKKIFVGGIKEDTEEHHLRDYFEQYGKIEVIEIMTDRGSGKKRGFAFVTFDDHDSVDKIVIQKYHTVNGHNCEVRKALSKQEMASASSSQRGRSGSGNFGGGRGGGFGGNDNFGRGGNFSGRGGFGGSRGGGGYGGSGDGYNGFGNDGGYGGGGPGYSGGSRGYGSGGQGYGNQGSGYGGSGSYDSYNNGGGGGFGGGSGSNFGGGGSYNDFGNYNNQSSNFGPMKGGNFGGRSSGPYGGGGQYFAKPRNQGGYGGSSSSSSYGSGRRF

Columns and labels:
Assay in all cases: co-IP
[1] = target: Nucleoprotein (NP) of influenza A virus A/Puerto Rico/8/34 (PR8) H1N1, myc/His-tagged (Influenza A virus A/Puerto Rico/8/34 (H1N1)) (UniProt P03466)
[2] = target: Nucleoprotein (NP) of influenza A virus A/Puerto Rico/8/34 (PR8) H1N1, made in infected cells (Influenza A virus A/Puerto Rico/8/34 (H1N1)) (UniProt P03466)
[3] = target: Heterogeneous ribonucleoprotein A1 (hnRNPA1), endogenous in HEK cells (human (endogenous in HEK)) (UniProt P09651)

In the case of “Heterogeneous ribonucleoprotein A1 (hnRNPA1), endogenous in HEK cells (from UniProt P09651-1 1-372)”, the binding [1] is reported as “binds”.
For “Heterogeneous ribonucleoprotein A1 (hnRNPA1), endogenous in A549 cells (from UniProt P09651-1 1-372)”, the binding [2] was “binds”.
In the case of “Nucleoprotein (NP) of influenza A virus A/Puerto Rico/8/34 (PR8) H1N1, myc/His-tagged (from UniProt P03466 1-498)”, the binding [3] is reported as “binds”.
